The other results are listed elsewhere or left out. Most entries show no effect beyond the scatter of the controls.

Protein sequences, listed by entry. Tags and fused reporters are not part of them. Lines headed by an entry give the natural chain unless they say otherwise; changes in a name come on top.
UniProt P49918: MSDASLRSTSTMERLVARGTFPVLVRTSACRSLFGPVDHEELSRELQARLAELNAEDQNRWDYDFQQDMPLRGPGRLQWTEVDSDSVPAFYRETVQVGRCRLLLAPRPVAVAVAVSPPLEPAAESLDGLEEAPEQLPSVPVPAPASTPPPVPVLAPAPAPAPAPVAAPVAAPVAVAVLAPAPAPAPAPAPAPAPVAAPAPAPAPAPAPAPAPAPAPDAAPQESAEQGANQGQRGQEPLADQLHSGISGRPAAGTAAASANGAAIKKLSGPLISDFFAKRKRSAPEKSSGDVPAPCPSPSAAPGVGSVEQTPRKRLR
UniProt P46060: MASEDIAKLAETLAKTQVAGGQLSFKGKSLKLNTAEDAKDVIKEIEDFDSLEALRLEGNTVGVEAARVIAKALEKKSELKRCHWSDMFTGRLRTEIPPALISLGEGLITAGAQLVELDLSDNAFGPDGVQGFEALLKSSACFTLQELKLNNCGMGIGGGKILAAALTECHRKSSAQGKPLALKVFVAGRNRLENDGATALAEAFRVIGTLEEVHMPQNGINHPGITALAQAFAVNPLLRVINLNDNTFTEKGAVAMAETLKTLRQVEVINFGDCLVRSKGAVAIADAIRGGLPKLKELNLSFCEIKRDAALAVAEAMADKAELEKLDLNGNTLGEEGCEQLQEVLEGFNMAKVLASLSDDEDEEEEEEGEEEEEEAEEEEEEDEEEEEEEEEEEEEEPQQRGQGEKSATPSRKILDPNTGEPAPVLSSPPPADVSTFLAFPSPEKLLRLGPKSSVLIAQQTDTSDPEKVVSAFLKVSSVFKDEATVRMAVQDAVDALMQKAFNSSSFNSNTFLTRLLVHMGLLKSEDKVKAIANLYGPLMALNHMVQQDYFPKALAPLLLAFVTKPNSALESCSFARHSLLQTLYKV
UniProt P49748: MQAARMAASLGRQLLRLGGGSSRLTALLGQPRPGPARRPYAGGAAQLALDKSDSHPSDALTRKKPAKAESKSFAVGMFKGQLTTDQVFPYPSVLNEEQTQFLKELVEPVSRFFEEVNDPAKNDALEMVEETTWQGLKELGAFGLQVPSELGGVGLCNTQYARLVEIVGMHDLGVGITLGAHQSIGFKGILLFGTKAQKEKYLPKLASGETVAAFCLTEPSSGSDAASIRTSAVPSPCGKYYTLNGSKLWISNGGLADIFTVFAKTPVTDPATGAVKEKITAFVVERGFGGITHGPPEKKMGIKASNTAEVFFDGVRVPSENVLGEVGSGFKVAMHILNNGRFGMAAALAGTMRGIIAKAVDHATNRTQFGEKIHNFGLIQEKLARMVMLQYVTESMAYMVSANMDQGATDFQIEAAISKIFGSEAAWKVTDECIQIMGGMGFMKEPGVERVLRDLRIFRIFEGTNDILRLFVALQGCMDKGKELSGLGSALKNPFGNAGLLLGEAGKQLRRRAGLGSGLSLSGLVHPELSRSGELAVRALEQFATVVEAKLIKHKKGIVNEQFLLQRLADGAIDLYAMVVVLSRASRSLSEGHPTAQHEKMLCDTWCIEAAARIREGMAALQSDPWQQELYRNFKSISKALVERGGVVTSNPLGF
UniProt P51946: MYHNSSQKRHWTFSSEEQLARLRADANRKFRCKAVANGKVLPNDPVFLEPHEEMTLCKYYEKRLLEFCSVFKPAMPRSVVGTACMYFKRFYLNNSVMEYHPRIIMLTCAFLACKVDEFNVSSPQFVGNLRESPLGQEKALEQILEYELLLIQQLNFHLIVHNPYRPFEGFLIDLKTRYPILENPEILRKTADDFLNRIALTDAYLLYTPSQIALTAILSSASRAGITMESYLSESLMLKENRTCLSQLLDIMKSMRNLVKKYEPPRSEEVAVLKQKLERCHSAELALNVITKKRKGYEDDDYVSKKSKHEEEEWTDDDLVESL
UniProt P48047: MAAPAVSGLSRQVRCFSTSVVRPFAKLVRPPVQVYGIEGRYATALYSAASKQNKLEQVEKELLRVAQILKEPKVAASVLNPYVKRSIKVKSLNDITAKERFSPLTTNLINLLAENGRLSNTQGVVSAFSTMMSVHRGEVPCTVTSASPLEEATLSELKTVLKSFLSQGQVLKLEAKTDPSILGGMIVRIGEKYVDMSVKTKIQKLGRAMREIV
UniProt P46199: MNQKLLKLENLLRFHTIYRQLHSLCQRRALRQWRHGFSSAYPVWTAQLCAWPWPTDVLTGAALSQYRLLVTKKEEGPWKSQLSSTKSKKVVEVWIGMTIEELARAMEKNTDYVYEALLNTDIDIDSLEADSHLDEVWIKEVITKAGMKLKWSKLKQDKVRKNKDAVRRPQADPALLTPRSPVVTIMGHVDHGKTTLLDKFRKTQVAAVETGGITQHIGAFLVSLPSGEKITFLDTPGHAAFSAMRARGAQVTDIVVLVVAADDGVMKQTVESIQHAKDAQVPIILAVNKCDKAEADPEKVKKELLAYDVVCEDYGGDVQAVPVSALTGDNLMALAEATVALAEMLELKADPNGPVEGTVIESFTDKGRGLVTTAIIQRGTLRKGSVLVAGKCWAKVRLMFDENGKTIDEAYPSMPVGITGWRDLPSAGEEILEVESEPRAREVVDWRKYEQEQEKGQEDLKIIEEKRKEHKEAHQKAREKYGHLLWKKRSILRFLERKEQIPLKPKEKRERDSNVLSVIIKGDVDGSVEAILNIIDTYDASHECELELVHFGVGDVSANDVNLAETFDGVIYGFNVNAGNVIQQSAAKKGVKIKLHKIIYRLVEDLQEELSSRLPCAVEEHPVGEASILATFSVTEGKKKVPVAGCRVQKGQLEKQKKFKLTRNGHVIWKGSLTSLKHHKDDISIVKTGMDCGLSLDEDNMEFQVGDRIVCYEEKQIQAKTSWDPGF
UniProt P53396: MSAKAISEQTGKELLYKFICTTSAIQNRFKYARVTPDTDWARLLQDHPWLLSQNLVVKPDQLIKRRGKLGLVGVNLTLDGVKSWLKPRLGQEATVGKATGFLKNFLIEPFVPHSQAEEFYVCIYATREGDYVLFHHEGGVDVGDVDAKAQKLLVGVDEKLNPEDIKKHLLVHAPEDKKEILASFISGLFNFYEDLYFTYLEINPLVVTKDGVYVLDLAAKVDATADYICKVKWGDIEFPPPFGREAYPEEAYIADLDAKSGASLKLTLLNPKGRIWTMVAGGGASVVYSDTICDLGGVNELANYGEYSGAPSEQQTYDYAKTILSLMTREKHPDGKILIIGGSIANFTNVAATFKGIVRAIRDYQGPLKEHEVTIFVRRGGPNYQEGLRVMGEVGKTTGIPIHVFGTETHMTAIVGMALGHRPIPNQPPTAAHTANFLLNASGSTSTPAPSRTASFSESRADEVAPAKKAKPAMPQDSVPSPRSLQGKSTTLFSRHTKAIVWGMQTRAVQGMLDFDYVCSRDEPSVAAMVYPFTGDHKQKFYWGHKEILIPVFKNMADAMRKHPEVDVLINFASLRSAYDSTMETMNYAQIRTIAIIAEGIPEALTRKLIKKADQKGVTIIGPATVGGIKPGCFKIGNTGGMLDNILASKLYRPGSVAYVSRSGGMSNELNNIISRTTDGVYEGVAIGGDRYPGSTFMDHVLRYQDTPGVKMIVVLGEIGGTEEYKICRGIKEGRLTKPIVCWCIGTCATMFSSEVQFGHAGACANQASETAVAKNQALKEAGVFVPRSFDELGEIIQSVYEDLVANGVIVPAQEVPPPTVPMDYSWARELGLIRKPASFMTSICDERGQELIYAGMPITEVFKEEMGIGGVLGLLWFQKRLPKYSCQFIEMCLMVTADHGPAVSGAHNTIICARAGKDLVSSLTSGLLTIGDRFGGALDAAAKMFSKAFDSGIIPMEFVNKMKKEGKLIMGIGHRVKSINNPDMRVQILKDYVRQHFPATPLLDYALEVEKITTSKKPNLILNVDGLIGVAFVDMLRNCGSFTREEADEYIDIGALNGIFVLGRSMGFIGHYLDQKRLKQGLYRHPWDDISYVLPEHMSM
UniProt P48643, whole entry: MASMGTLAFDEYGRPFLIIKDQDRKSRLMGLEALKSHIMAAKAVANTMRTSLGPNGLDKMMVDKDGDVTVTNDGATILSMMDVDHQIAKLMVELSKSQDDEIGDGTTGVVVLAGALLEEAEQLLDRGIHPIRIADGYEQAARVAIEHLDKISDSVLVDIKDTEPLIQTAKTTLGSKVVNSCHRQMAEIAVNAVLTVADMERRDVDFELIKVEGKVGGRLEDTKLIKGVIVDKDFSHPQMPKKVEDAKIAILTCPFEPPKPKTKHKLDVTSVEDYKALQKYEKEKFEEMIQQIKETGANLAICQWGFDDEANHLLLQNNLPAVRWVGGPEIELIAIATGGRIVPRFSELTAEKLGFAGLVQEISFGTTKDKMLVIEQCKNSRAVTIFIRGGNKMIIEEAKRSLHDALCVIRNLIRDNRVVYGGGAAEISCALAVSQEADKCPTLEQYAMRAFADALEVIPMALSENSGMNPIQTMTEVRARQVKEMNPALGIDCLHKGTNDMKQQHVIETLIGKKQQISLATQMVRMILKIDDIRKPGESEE
UniProt P51553: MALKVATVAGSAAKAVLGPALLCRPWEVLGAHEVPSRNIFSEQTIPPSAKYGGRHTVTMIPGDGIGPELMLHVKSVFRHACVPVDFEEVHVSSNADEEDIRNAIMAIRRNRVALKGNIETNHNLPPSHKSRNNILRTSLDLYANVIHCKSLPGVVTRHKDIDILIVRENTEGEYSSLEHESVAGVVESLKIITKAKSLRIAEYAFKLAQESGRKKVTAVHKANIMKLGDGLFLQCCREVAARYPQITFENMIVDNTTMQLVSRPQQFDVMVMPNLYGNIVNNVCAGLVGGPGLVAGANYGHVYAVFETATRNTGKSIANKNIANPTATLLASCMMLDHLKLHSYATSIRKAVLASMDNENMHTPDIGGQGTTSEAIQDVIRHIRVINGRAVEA
UniProt P53350, whole entry: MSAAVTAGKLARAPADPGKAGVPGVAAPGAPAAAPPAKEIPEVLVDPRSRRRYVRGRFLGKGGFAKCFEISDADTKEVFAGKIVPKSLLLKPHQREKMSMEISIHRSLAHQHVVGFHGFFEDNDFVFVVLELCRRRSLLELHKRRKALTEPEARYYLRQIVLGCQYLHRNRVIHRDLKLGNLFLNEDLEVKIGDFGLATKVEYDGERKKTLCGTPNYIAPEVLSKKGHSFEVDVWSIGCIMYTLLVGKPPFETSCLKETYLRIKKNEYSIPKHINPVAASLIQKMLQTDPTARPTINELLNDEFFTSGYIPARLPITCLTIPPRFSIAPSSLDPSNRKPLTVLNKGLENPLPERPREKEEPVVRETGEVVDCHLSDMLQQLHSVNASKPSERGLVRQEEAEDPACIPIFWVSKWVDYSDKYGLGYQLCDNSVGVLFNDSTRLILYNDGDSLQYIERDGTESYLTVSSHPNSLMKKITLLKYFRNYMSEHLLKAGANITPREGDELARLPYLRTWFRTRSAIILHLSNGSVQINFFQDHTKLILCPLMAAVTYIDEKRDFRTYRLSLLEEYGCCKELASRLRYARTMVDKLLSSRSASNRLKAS
UniProt P46736, whole entry: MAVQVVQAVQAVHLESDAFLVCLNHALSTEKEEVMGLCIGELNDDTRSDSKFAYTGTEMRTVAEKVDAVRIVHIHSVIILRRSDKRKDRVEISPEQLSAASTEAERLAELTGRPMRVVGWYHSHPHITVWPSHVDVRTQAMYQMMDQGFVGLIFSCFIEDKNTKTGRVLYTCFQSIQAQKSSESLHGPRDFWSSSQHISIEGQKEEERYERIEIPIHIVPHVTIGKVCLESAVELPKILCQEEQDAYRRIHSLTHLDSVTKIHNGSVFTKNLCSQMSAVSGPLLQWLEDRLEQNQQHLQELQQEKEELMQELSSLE
UniProt P52737: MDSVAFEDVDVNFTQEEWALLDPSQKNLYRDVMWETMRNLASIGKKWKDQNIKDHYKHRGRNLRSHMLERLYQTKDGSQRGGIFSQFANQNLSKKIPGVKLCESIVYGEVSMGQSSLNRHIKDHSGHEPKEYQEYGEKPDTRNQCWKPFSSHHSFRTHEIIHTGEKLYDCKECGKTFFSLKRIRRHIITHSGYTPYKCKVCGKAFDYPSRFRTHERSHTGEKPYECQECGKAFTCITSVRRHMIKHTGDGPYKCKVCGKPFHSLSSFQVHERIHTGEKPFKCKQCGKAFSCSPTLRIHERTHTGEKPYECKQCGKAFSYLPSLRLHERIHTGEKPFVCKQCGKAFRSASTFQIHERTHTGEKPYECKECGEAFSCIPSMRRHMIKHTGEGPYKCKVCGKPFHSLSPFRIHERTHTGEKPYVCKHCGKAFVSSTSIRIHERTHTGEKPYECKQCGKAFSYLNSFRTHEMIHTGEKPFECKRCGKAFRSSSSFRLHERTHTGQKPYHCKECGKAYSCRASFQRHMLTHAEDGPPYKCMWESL
UniProt P49765: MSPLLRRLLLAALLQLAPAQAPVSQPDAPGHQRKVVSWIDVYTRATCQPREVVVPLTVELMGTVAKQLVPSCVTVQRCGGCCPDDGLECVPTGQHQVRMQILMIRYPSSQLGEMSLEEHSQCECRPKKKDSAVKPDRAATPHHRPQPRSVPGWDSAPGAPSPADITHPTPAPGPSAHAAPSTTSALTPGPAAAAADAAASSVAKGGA

Compound in the assay: Cc1nc(Nc2ncc(C(=O)Nc3c(C)cccc3Cl)s2)cc(N2CCN(CCO)CC2)n1 [dasatinib]
In words: log2 fold change of tryptic peptide abundance, ligand vs vehicle (limited proteolysis) (log2 ratio); higher = more trypsin-susceptible (destabilized). Conditions: ligand concentration: 5 uM; sample: K562 cleared lysate.
With “CDKN1C (peptide sequence: SLFGPVDHEELSR, peptide start residue: 32) (UniProt P49918)”, the log2 fold change was -0.112. The result for “RANGAP1 (peptide sequence: SSACFTLQELK, peptide start residue: 138) (UniProt P46060)” reads -0.145.

Consider “UniProt P52746 (peptide sequence: QAVLSHENCK, peptide start residue: 557)”, for which the log2 fold change stood at 0.577. For “ACADVL (peptide sequence: SFAVGMFK, peptide start residue: 72) (UniProt P49748)”, the log2 fold change was -0.321.

In the case of “CCNH (peptide sequence: GYEDDDYVSKK, peptide start residue: 296) (UniProt P51946)”, the log2 fold change was 0.307. The result for “UniProt P52434 (peptide sequence: LHCESESFK, peptide start residue: 28)” reads 0.229; that for “UniProt P48047 (peptide sequence: VAASVLNPYVK, peptide start residue: 74)”, -0.283. Consider “MTIF2 (peptide sequence: AEADPEKVKK, peptide start residue: 293) (UniProt P46199)”, for which the log2 fold change was -0.792. “MECP2 (peptide sequence: SAGKYDVYLINPQGK, peptide start residue: 116) (UniProt P51608)”: the log2 fold change came to 0.488.

As to “UniProt P49840 (peptide sequence: DIKPQNLLVDPDTAVLK, peptide start residue: 244)”, the log2 fold change was 0.106. Regarding “ACLY (peptide sequence: FICTTSAIQNR, peptide start residue: 18) (UniProt P53396)”, the log2 fold change worked out at 0.12. The result for “RARS (peptide sequence: YADLSHNRLNDYIFSFDK, peptide start residue: 505) (UniProt P54136)” reads 0.343; that for “CCT5 (peptide sequence: LMGLEALKSHIMAAK, peptide start residue: 28) (UniProt P48643)”, 0.402; that for “UniProt P49591 (peptide sequence: IEQFVYSSPHDNK, peptide start residue: 324)”, 0.137. The result for “POLR2J (peptide sequence: VAIKDKQEGIE, peptide start residue: 107) (UniProt P52435)” reads 0.0796; that for “CAPZA1 (peptide sequence: RQLPVTR, peptide start residue: 260) (UniProt P52907)”, 0.246; that for “PCYT1A (peptide sequence: TSPPCSPANLSR, peptide start residue: 342) (UniProt P49585)”, 0.12. Take “UniProt P50613 (peptide sequence: DLKPNNLLLDENGVLK, peptide start residue: 137)”: the log2 fold change amounted to 0.301.

For “IDH3G (peptide sequence: LHSYATSIR, peptide start residue: 341) (UniProt P51553)”, the log2 fold change is 0.101. As to “PLK1 (peptide sequence: SAIILHLSNGSVQINFFQDHTK, peptide start residue: 519) (UniProt P53350)”, the log2 fold change stood at 0.886. The result for “RBM5 (peptide sequence: GSAYGLSGADSYKDAVR, peptide start residue: 788) (UniProt P52756)” reads -0.329. The result for “UniProt P48201 (peptide sequence: LACTPSLIR, peptide start residue: 7)” reads -0.22. In the case of “IDH2 (peptide sequence: LILPHVDIQLK, peptide start residue: 70) (UniProt P48735)”, the log2 fold change was determined as 1.01. The result for “TAF6 (peptide sequence: HCAPVLAK, peptide start residue: 430) (UniProt P49848)” reads -0.365; that for “POLG (peptide sequence: LTQQEAAEK, peptide start residue: 973) (UniProt P54098)”, 0.435; that for “NUP98 (peptide sequence: ETFLTQK, peptide start residue: 1602) (UniProt P52948)”, -0.49. As for “PXN (peptide sequence: GSLCSGCQKPITGR, peptide start residue: 532) (UniProt P49023)”, the log2 fold change is 0.091. The result for “NEK3 (peptide sequence: SKNIFLTQNGK, peptide start residue: 130) (UniProt P51956)” reads -0.723; that for “NOTCH1 (peptide sequence: VASFYCECPHGR, peptide start residue: 354) (UniProt P46531)”, 0.231. “BCAT1 (peptide sequence: CILDLAHQWGEFK, peptide start residue: 293) (UniProt P54687)”: the log2 fold change was -0.155. In the case of “CLNS1A (peptide sequence: GLGTGTLYIAESR, peptide start residue: 31) (UniProt P54105)”, the log2 fold change was determined as 0.0377. For “BRCC3 (peptide sequence: ILCQEEQDAYRR, peptide start residue: 238) (UniProt P46736)”, the log2 fold change turned out to be 0.198. The result for “UniProt P49459 (peptide sequence: RVSAIVEQSWRDC, peptide start residue: 140)” reads -0.412; that for “RAP1GAP (peptide sequence: AAGISLIVPGKSPTR, peptide start residue: 473) (UniProt P47736)”, -0.143. The result for “UniProt P52737 (peptide sequence: HIKDHSGHEPK, peptide start residue: 120)” reads -0.389; that for “GDI2 (peptide sequence: KNDIYGED, peptide start residue: 438) (UniProt P50395)”, -0.0588.

Take “UniProt P49765 (peptide sequence: YPSSQLGEMSLEEHSQCECRPK, peptide start residue: 106)”: the log2 fold change was -0.471.
